Measured values taken from the supplement of paper PMC8728848.
This is one part of the list.

Assays:
Test in all cases: glycan array binding signal (z-score within array); higher = stronger binding
Settings in all cases: glycan notation: IUPAC condensed, linker removed
[1] = target: Fuc(a1-3)[Gal(b1-4)]GlcNAc(b1-3)GalNAc
Outline: (§1)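 Glycan array data were curated from 3228 arrays in the Consortium for Functional Glycomics database and kept only where the protein sequence was available. Glycan names were converted to IUPAC-condensed notation, and columns mapping to the same glycan were averaged. The binding signal is a within-array Z-score, averaged across arrays of the same protein sequence at different concentrations or buffers and across linkers. Negative Z-scores can be read as non-binding.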

[2] = target: Fuc(a1-3)[Gal(b1-4)]GlcNAc(b1-4)Gal(b1-4)[Fuc(a1-3)]GlcNAc
Outline: as §1

[3] = target: Fuc(a1-3)[Gal(b1-4)]GlcNAc(b1-4)Gal(b1-4)[Fuc(a1-3)]GlcNAc(b1-4)Gal(b1-4)[Fuc(a1-3)]GlcNAc
Outline: as §1

[4] = target: Fuc(a1-3)[Gal(b1-4)]GlcNAc(b1-6)GalNAc
Outline: as §1

[5] = target: Fuc(a1-3)[Gal(b1-4)]GlcNAc(b1-6)[Gal(b1-3)GlcNAc(b1-3)]Gal(b1-4)Glc
Outline: as §1

[6] = target: Fuc(a1-3)[Gal(b1-4)]GlcNAc6S
Outline: as §1

[7] = target: Fuc(a1-3)[Gal3S(b1-4)]Glc
Outline: as §1

[8] = target: Fuc(a1-3)[Gal3S(b1-4)]GlcNAc
Outline: as §1

[9] = target: Fuc(a1-3)[Gal3S(b1-4)]GlcNAc6S
Outline: as §1

[10] = target: Fuc(a1-3)[GalNAc(b1-4)]GlcNAc
Outline: as §1

[11] = target: Fuc(a1-3)[GalNAc(b1-4)]GlcNAc6S
Outline: as §1

Fuc(a1-4)GlcNAc = target: Fuc(a1-4)GlcNAc
Outline: as §1

Fuc(b1-3)GlcNAc = target: Fuc(b1-3)GlcNAc
Outline: as §1

Gal(a1-2)Gal = target: Gal(a1-2)Gal
Outline: as §1

Gal(a1-3)Gal = target: Gal(a1-3)Gal
Outline: as §1

Gal(a1-3)Gal(b1-3)GlcNAc = target: Gal(a1-3)Gal(b1-3)GlcNAc
Outline: as §1

[12] = target: Gal(a1-3)Gal(b1-3)GlcNAc(b1-2)Man
Outline: as §1

[13] = target: Gal(a1-3)Gal(b1-3)GlcNAc(b1-2)Man(a1-3)[Gal(a1-3)Gal(b1-3)GlcNAc(b1-2)Man(a1-6)]Man(b1-4)GlcNAc(b1-4)GlcNAc
Outline: as §1

[14] = target: Gal(a1-3)Gal(b1-3)GlcNAc(b1-3)GalNAc
Outline: as §1

[15] = target: Gal(a1-3)Gal(b1-3)GlcNAc(b1-6)GalNAc
Outline: as §1

[16] = target: Gal(a1-3)Gal(b1-3)[Fuc(a1-4)]GlcNAc(b1-2)Man(a1-3)[Gal(a1-3)Gal(b1-3)[Fuc(a1-4)]GlcNAc(b1-2)Man(a1-6)]Man(b1-4)GlcNAc(b1-4)GlcNAc
Outline: as §1

Gal(a1-3)Gal(b1-4)Glc = target: Gal(a1-3)Gal(b1-4)Glc
Outline: as §1

Gal(a1-3)Gal(b1-4)GlcNAc = target: Gal(a1-3)Gal(b1-4)GlcNAc
Outline: as §1

[17] = target: Gal(a1-3)Gal(b1-4)GlcNAc(b1-2)Man
Outline: as §1

[18] = target: Gal(a1-3)Gal(b1-4)GlcNAc(b1-2)Man(a1-3)[Gal(a1-3)Gal(b1-4)GlcNAc(b1-2)Man(a1-6)]Man(b1-4)GlcNAc(b1-4)GlcNAc
Outline: as §1

[19] = target: Gal(a1-3)Gal(b1-4)GlcNAc(b1-3)GalNAc
Outline: as §1

[20] = target: Gal(a1-3)Gal(b1-4)GlcNAc(b1-6)GalNAc
Outline: as §1

[21] = target: Gal(a1-3)Gal(b1-4)[Fuc(a1-3)]GlcNAc
Outline: as §1

[22] = target: Gal(a1-3)Gal(b1-4)[Fuc(a1-3)]GlcNAc(b1-2)Man(a1-3)[Gal(a1-3)Gal(b1-4)[Fuc(a1-3)]GlcNAc(b1-2)Man(a1-6)]Man(b1-4)GlcNAc(b1-4)GlcNAc
Outline: as §1

Gal(a1-3)GalNAc = target: Gal(a1-3)GalNAc
Outline: as §1

[23] = target: Gal(a1-3)[Gal(a1-4)]Gal(b1-4)GlcNAc
Outline: as §1

[24] = target: Gal(a1-4)Gal(b1-3)GlcNAc(b1-2)Man(a1-3)[Gal(a1-4)Gal(b1-3)GlcNAc(b1-2)Man(a1-6)]Man(b1-4)GlcNAc(b1-4)GlcNAc
Outline: as §1

Gal(a1-4)Gal(b1-4)Glc = target: Gal(a1-4)Gal(b1-4)Glc
Outline: as §1

Gal(a1-4)Gal(b1-4)GlcNAc = target: Gal(a1-4)Gal(b1-4)GlcNAc
Outline: as §1

[25] = target: Gal(a1-4)Gal(b1-4)GlcNAc(b1-2)Man(a1-3)[Gal(a1-4)Gal(b1-4)GlcNAc(b1-2)Man(a1-6)]Man(b1-4)GlcNAc(b1-4)GlcNAc
Outline: as §1

[26] = target: Gal(a1-4)Gal(b1-4)GlcNAc(b1-3)Gal(b1-4)Glc
Outline: as §1

Gal(a1-4)GlcNAc = target: Gal(a1-4)GlcNAc
Outline: as §1

Gal(a1-6)Glc = target: Gal(a1-6)Glc
Outline: as §1

B1: RbmA (Vibrio cholerae), A0A2H4NFB8 (protein)
chain: MSNFKGSIMNKRHYYLASCLALLFSTASYAEVDCELQPVIEANLSLNQNQLASNGGYISSQLGIRNESCETVKFKYWLSIKGPEGIYFPAKAVVGVDTAQQESDALTDGRMLNVTRGFWVPEYMADGKYTVSLQVVAENGEVFKANQEFVKGGDLNSLPELNGLTIDIKNQFGINSVESTGGFVPFTIDLNNGREGEAKVEFWMTAVGPDGLIIPVHSREKWMIIAGNTFSKVRGINFDKSYPAGEYTINAQVVDIVSGERVEQLMTVVKK
**Q.** Which results are given for B1?
**A.** glycan array binding signal (z-score) [1]: -0.565; glycan array binding signal (z-score) [2]: -0.62; glycan array binding signal (z-score) [3]: 0.07; glycan array binding signal (z-score) [4]: 1.39; glycan array binding signal (z-score) [5]: -0.473; glycan array binding signal (z-score) [6]: 0.469; glycan array binding signal (z-score) [7]: 1.96; glycan array binding signal (z-score) [8]: 0.861; glycan array binding signal (z-score) [9]: 1.34; glycan array binding signal (z-score) [10]: -0.002; glycan array binding signal (z-score) [11]: -0.596; glycan array binding signal (z-score) (Fuc(a1-4)GlcNAc): -0.613; glycan array binding signal (z-score) (Fuc(b1-3)GlcNAc): 1.3; glycan array binding signal (z-score) (Gal(a1-2)Gal): -0.14; glycan array binding signal (z-score) (Gal(a1-3)Gal): 0.011; glycan array binding signal (z-score) (Gal(a1-3)Gal(b1-3)GlcNAc): -0.059; glycan array binding signal (z-score) [12]: -0.943; glycan array binding signal (z-score) [13]: -0.418; glycan array binding signal (z-score) [14]: -1.22; glycan array binding signal (z-score) [15]: 0.54; glycan array binding signal (z-score) [16]: -0.276; glycan array binding signal (z-score) (Gal(a1-3)Gal(b1-4)Glc): -0.199; glycan array binding signal (z-score) (Gal(a1-3)Gal(b1-4)GlcNAc): 0.237; glycan array binding signal (z-score) [17]: -0.612; glycan array binding signal (z-score) [18]: 0.672; glycan array binding signal (z-score) [19]: -0.556; glycan array binding signal (z-score) [20]: -0.338; glycan array binding signal (z-score) [21]: -0.766; glycan array binding signal (z-score) [22]: 0.837; glycan array binding signal (z-score) (Gal(a1-3)GalNAc): -0.761; glycan array binding signal (z-score) [23]: 2.5; glycan array binding signal (z-score) [24]: 0.508; glycan array binding signal (z-score) (Gal(a1-4)Gal(b1-4)Glc): -0.37; glycan array binding signal (z-score) (Gal(a1-4)Gal(b1-4)GlcNAc): 0.219; glycan array binding signal (z-score) [25]: -0.702; glycan array binding signal (z-score) [26]: 0.028; glycan array binding signal (z-score) (Gal(a1-4)GlcNAc): 0.47; glycan array binding signal (z-score) (Gal(a1-6)Glc): 1.13
